Laboratory results published in the supplement of paper PMC8728848.
Some of the results follow.

Tests used:
Assay in all cases: glycan array binding signal (z-score within array); higher = stronger binding
Conditions in all cases: glycan notation: IUPAC condensed, linker removed
[1] = molecular target: Gal(b1-3)[Neu5Ac(a2-6)]GalNAc
In short: (§1)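 The Consortium for Functional Glycomics database supplied 3228 glycan arrays, of which those lacking an available protein sequence were dropped. The binding signal, a within-array Z-score, was averaged across arrays of the same protein sequence and across linkers. Negative scores can be read as non-binding.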

[2] = molecular target: Gal(b1-3)[Neu5Ac(a2-6)]GlcNAc(b1-6)Gal(b1-4)Glc
In short: as §1

[3] = molecular target: Gal(b1-3)[Neu5Ac(b2-6)]GalNAc
In short: as §1

[4] = molecular target: Gal(b1-4)GalNAc(a1-3)[Fuc(a1-2)]Gal(b1-4)GlcNAc
In short: as §1

[5] = molecular target: Gal(b1-4)GalNAc(b1-3)[Fuc(a1-2)]Gal(b1-4)GlcNAc
In short: as §1

Gal(b1-4)Glc = molecular target: Gal(b1-4)Glc
In short: as §1

Gal(b1-4)Glc6S = molecular target: Gal(b1-4)Glc6S
In short: as §1

Gal(b1-4)GlcNAc = molecular target: Gal(b1-4)GlcNAc
In short: as §1

[6] = molecular target: Gal(b1-4)GlcNAc(a1-6)Gal(b1-4)GlcNAc
In short: as §1

[7] = molecular target: Gal(b1-4)GlcNAc(b1-2)Man(a1-3)Man(b1-4)GlcNAc(b1-4)GlcNAc
In short: as §1

[8] = molecular target: Gal(b1-4)GlcNAc(b1-2)Man(a1-3)[Gal(b1-4)GlcNAc(b1-2)Man(a1-6)]Man(b1-4)GlcNAc(b1-4)GlcNAc
In short: as §1

[9] = molecular target: Gal(b1-4)GlcNAc(b1-2)Man(a1-3)[Gal(b1-4)GlcNAc(b1-2)Man(a1-6)]Man(b1-4)GlcNAc(b1-4)[Fuc(a1-6)]GlcNAc
In short: as §1

[10] = molecular target: Gal(b1-4)GlcNAc(b1-2)Man(a1-3)[GlcNAc(b1-2)Man(a1-6)]Man(b1-4)GlcNAc(b1-4)GlcNAc
In short: as §1

[11] = molecular target: Gal(b1-4)GlcNAc(b1-2)Man(a1-3)[Man(a1-6)]Man(b1-4)GlcNAc(b1-4)GlcNAc
In short: as §1

[12] = molecular target: Gal(b1-4)GlcNAc(b1-2)Man(a1-6)Man(b1-4)GlcNAc(b1-4)GlcNAc
In short: as §1

[13] = molecular target: Gal(b1-4)GlcNAc(b1-2)Man(a1-6)[GlcNAc(b1-2)Man(a1-3)]Man(b1-4)GlcNAc(b1-4)GlcNAc
In short: as §1

[14] = molecular target: Gal(b1-4)GlcNAc(b1-2)Man(a1-6)[Man(a1-3)]Man(b1-4)GlcNAc(b1-4)GlcNAc
In short: as §1

[15] = molecular target: Gal(b1-4)GlcNAc(b1-2)[Gal(b1-4)GlcNAc(b1-4)]Man(a1-3)[Gal(b1-4)GlcNAc(b1-2)Man(a1-6)]Man(b1-4)GlcNAc(b1-4)GlcNAc
In short: as §1

[16] = molecular target: Gal(b1-4)GlcNAc(b1-2)[Gal(b1-4)GlcNAc(b1-4)]Man(a1-3)[Gal(b1-4)GlcNAc(b1-2)[Gal(b1-4)GlcNAc(b1-6)]Man(a1-6)]Man(b1-4)GlcNAc(b1-4)GlcNAc
In short: as §1

[17] = molecular target: Gal(b1-4)GlcNAc(b1-3)Gal(b1-3)GlcNAc
In short: as §1

[18] = molecular target: Gal(b1-4)GlcNAc(b1-3)Gal(b1-4)Glc
In short: as §1

[19] = molecular target: Gal(b1-4)GlcNAc(b1-3)Gal(b1-4)GlcNAc
In short: as §1

[20] = molecular target: Gal(b1-4)GlcNAc(b1-3)Gal(b1-4)GlcNAc(b1-3)Gal(b1-4)GlcNAc
In short: as §1

[21] = molecular target: Gal(b1-4)GlcNAc(b1-3)Gal(b1-4)[Fuc(a1-3)]GlcNAc(b1-3)Gal(b1-4)[Fuc(a1-3)]GlcNAc
In short: as §1

[22] = molecular target: Gal(b1-4)GlcNAc(b1-3)GalNAc
In short: as §1

[23] = molecular target: Gal(b1-4)GlcNAc(b1-3)[Gal(b1-4)GlcNAc(b1-6)]Gal(b1-4)GlcNAc
In short: as §1

[24] = molecular target: Gal(b1-4)GlcNAc(b1-3)[Gal(b1-4)GlcNAc(b1-6)]GalNAc
In short: as §1

[25] = molecular target: Gal(b1-4)GlcNAc(b1-3)[GlcNAc(b1-6)]Gal(b1-4)GlcNAc
In short: as §1

[26] = molecular target: Gal(b1-4)GlcNAc(b1-6)Gal(b1-4)GlcNAc
In short: as §1

[27] = molecular target: Gal(b1-4)GlcNAc(b1-6)GalNAc
In short: as §1

[28] = molecular target: Gal(b1-4)GlcNAc(b1-6)[Gal(b1-3)]GalNAc
In short: as §1

Gal3S(b1-3)GalNAc = molecular target: Gal3S(b1-3)GalNAc
In short: as §1

Gal3S(b1-3)GlcNAc = molecular target: Gal3S(b1-3)GlcNAc
In short: as §1

[29] = molecular target: Gal3S(b1-3)[Fuc(a1-4)]GlcNAc
In short: as §1

Gal3S(b1-4)Glc = molecular target: Gal3S(b1-4)Glc
In short: as §1

Gal3S(b1-4)Glc6S = molecular target: Gal3S(b1-4)Glc6S
In short: as §1

Gal3S(b1-4)GlcNAc = molecular target: Gal3S(b1-4)GlcNAc
In short: as §1

Gal3S(b1-4)GlcNAc6S = molecular target: Gal3S(b1-4)GlcNAc6S
In short: as §1

B1: PEB3 (Campylobacter jejuni), Q0PBL7 (protein)
chain: MKKIITLFGACALAFSMANADVNLYGPGGPHTALKDIANKYSEKTGVKVNVNFGPQATWFEKAKKDADILFGASDQSALAIASDFGKDFNVSKIKPLYFREAIILTQKGNPLKIKGLKDLANKKVRIVVPEGAGKSNTSGTGVWEDMIGRTQDIKTIQNFRNNIVAFVPNSGSARKLFAQDQADAWITWIDWSKSNPDIGTAVAIEKDLVVYRTFNVIAKEGASKETQDFIAYLSSKEAKEIFKKYGWRE
glycan array binding signal (z-score) [1]: -1.27
glycan array binding signal (z-score) [2]: 1.35
glycan array binding signal (z-score) [3]: -0.776
glycan array binding signal (z-score) [4]: -0.497
glycan array binding signal (z-score) [5]: -0.05
glycan array binding signal (z-score) (Gal(b1-4)Glc): -1.22
glycan array binding signal (z-score) (Gal(b1-4)Glc6S): -0.518
glycan array binding signal (z-score) (Gal(b1-4)GlcNAc): -0.089
glycan array binding signal (z-score) [6]: -0.204
glycan array binding signal (z-score) [7]: 2.37
glycan array binding signal (z-score) [8]: 0.498
glycan array binding signal (z-score) [9]: 1.56
glycan array binding signal (z-score) [10]: -0.682
glycan array binding signal (z-score) [11]: -0.506
glycan array binding signal (z-score) [12]: -0.494
glycan array binding signal (z-score) [13]: 0.783
glycan array binding signal (z-score) [14]: -1.06
glycan array binding signal (z-score) [15]: 0.173
glycan array binding signal (z-score) [16]: 0.559
glycan array binding signal (z-score) [17]: 0.486
glycan array binding signal (z-score) [18]: 0.676
glycan array binding signal (z-score) [19]: -1.22
glycan array binding signal (z-score) [20]: -0.268
glycan array binding signal (z-score) [21]: 0.634
glycan array binding signal (z-score) [22]: -0.781
glycan array binding signal (z-score) [23]: -0.199
glycan array binding signal (z-score) [24]: -0.191
glycan array binding signal (z-score) [25]: -0.25
glycan array binding signal (z-score) [26]: -0.012
glycan array binding signal (z-score) [27]: -0.031
glycan array binding signal (z-score) [28]: 0.227
glycan array binding signal (z-score) (Gal3S(b1-3)GalNAc): -1.28
glycan array binding signal (z-score) (Gal3S(b1-3)GlcNAc): 1.88
glycan array binding signal (z-score) [29]: -0.137
glycan array binding signal (z-score) (Gal3S(b1-4)Glc): -1.17
glycan array binding signal (z-score) (Gal3S(b1-4)Glc6S): -0.419
glycan array binding signal (z-score) (Gal3S(b1-4)GlcNAc): -0.295
glycan array binding signal (z-score) (Gal3S(b1-4)GlcNAc6S): 0.158
